Reference: paper PMC3917433
These are yes or no findings as the source states them, for the method shown. Some entries that bind do so weakly or less than the wild type.

Amino acid sequences for entries named in this document (tags omitted). A change or cut given only in a name is not applied to a line headed by its entry. Chains listed by the source or under a name are the forms on record and can include a tag or linker.
UniProt P50225: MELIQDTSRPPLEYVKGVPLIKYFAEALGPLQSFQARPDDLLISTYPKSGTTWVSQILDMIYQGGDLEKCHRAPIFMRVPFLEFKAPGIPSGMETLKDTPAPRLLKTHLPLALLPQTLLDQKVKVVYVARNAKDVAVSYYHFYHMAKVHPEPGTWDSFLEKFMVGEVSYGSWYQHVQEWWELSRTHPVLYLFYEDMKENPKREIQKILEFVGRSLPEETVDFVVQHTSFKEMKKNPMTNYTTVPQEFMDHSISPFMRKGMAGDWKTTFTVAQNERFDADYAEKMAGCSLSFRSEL
UniProt Q13136: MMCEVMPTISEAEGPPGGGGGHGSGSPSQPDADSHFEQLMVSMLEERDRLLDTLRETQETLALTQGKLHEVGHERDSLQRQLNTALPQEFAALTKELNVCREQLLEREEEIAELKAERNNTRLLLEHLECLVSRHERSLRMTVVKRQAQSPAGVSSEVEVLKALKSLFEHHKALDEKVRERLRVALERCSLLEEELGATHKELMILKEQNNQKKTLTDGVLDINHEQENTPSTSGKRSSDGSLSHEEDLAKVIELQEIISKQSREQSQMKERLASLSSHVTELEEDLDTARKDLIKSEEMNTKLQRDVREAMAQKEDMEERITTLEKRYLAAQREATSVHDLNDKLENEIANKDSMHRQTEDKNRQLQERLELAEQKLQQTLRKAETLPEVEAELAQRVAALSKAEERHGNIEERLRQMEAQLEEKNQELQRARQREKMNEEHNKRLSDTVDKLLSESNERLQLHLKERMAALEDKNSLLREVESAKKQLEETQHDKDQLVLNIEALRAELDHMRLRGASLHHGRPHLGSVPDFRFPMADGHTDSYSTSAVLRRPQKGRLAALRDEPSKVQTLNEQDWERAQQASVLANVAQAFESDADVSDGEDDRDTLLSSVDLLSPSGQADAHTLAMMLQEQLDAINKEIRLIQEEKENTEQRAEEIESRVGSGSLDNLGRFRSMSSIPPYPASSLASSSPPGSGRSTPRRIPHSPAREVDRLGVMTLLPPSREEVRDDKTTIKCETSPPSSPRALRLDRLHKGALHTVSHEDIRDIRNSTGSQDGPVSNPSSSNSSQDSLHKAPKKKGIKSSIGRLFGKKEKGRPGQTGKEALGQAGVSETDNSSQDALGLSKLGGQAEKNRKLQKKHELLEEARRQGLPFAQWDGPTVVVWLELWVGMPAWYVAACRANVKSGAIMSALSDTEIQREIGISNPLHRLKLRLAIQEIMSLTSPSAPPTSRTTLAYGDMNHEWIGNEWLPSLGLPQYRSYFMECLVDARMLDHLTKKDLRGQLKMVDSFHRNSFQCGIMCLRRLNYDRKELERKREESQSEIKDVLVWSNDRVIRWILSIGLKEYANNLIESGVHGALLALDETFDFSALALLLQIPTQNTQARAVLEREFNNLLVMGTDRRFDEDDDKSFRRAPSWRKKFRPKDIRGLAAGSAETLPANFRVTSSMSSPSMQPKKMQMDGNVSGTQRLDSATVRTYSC
ZXD family zinc finger C (ZXDC) (Q2QGD7, form named): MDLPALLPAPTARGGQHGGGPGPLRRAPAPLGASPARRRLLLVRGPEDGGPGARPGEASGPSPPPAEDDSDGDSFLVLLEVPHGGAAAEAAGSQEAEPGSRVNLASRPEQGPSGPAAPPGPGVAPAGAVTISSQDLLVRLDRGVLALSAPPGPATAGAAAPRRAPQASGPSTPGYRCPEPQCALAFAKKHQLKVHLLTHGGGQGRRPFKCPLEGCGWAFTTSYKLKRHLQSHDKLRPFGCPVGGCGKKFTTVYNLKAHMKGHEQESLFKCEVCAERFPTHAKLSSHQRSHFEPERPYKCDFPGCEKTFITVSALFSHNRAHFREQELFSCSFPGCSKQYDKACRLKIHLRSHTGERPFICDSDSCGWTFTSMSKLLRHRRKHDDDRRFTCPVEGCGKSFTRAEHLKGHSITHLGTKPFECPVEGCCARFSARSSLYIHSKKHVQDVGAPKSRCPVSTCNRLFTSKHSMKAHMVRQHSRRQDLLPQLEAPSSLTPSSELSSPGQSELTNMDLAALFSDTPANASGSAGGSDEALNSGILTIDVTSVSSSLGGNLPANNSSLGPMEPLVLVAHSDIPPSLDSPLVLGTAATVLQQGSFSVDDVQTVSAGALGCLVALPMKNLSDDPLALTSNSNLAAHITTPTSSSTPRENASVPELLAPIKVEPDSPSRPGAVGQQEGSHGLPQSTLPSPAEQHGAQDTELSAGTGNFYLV
UniProt P98175: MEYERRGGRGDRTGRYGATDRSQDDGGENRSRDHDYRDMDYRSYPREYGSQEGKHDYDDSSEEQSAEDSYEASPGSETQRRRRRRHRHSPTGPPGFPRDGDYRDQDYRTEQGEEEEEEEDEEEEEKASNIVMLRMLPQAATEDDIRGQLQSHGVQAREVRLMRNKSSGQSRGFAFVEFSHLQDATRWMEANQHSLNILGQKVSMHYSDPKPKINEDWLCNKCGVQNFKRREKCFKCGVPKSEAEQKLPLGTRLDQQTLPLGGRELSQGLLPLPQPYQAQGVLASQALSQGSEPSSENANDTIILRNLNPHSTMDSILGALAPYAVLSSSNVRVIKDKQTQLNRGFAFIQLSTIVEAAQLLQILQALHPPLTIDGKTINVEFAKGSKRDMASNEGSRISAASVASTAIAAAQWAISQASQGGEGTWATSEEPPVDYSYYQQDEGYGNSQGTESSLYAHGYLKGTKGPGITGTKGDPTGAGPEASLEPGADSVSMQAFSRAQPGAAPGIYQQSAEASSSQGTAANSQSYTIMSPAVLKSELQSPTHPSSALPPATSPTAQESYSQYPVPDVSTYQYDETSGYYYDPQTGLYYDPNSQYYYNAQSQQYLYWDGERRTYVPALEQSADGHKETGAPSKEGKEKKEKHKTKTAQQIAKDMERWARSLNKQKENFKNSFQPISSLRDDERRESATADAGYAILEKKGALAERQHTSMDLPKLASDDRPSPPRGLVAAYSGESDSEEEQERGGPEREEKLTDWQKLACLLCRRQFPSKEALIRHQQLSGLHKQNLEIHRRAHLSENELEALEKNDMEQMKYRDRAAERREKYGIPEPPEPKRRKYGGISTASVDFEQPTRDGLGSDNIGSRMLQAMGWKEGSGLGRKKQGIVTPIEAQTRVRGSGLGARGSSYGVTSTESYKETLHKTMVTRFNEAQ
UniProt P25054: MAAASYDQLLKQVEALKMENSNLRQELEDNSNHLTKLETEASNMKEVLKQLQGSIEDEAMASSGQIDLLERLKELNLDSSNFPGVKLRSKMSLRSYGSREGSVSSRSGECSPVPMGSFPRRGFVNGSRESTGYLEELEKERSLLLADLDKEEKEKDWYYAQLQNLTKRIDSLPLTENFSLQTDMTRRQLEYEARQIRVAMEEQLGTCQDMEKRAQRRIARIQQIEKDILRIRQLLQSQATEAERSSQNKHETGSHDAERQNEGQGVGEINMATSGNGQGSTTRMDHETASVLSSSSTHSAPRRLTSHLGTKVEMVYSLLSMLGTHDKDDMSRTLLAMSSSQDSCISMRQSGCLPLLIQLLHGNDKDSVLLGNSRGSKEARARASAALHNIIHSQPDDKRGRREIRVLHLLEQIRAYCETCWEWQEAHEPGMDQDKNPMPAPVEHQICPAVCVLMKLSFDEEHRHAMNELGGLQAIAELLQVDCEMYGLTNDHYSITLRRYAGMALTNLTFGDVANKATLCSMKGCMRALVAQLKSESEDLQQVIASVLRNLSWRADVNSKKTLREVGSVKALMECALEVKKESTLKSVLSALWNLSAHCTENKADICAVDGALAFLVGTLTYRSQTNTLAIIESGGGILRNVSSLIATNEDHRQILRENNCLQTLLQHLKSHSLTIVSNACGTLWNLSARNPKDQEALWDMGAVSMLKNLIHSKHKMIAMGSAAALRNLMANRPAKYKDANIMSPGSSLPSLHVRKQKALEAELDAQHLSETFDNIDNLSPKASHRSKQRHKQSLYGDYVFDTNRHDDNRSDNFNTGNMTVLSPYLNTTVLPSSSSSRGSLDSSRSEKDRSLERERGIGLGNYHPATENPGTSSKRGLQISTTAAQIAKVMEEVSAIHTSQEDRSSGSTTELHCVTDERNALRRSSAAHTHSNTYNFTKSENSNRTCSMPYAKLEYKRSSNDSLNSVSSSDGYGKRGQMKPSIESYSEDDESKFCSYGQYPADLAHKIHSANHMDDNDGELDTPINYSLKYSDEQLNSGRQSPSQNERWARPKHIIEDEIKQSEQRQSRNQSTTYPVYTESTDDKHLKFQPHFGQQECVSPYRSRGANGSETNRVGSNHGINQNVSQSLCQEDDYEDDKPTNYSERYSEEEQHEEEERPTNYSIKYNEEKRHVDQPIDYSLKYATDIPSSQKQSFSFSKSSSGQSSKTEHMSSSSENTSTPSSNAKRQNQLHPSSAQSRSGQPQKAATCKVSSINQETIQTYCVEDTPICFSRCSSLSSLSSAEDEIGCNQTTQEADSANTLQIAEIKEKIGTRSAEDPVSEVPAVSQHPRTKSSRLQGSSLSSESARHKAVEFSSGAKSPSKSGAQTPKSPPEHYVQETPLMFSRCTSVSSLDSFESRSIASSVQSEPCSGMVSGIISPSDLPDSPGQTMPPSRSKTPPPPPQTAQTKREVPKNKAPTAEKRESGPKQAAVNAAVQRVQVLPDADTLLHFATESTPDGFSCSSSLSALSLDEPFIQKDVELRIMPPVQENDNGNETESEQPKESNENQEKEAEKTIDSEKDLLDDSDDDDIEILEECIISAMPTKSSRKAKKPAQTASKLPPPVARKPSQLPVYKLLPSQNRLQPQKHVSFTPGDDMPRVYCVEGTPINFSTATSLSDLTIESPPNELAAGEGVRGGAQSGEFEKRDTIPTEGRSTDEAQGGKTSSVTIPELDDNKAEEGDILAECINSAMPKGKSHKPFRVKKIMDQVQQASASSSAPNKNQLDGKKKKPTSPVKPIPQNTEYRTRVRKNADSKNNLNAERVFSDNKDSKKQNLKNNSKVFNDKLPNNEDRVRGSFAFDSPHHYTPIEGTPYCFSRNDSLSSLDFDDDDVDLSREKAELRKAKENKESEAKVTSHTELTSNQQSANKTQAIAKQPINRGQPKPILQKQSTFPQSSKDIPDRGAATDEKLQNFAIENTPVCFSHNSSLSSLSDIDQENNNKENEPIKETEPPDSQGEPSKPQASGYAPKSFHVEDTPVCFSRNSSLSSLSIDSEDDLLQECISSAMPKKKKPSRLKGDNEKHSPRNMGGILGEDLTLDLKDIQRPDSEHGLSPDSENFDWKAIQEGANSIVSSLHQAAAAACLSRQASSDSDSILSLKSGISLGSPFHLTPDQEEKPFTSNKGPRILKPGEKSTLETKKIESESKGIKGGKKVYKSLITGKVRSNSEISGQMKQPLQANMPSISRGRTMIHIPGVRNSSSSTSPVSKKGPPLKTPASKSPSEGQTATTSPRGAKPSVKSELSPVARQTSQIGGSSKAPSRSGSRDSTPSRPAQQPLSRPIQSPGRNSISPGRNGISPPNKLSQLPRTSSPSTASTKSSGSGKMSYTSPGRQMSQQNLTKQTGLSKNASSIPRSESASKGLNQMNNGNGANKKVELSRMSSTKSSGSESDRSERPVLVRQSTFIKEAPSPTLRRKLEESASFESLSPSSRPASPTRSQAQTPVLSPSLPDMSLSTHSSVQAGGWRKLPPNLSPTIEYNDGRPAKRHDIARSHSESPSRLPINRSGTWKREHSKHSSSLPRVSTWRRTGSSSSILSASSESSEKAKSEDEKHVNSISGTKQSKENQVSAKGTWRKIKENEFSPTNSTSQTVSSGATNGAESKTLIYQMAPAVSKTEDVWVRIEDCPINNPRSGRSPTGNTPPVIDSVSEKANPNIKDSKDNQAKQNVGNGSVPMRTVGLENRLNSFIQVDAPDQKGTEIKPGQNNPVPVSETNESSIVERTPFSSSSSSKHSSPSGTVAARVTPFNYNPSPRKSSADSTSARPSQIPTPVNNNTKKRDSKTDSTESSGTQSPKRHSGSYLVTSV
UniProt P13202: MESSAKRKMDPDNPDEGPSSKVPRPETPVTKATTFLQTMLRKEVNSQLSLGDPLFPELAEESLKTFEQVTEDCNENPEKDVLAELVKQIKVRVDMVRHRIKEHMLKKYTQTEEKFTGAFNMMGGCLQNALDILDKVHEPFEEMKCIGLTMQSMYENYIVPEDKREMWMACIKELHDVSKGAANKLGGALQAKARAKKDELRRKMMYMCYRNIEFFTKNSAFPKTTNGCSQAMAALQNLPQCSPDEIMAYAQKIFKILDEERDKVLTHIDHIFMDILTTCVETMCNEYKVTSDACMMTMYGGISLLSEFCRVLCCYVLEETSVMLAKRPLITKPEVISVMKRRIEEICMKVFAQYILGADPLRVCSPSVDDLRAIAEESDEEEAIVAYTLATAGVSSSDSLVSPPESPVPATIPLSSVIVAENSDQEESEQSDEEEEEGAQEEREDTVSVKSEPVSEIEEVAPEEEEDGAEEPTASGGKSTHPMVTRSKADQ

How the values were obtained:
Experiment in all cases: peptide or protein array; only the binder purified
[1] = biological target: T1, Actin-bundling protein with BAIAP2 homology (ABBA-1) (human) (UniProt Q765P7)
T1 sequence: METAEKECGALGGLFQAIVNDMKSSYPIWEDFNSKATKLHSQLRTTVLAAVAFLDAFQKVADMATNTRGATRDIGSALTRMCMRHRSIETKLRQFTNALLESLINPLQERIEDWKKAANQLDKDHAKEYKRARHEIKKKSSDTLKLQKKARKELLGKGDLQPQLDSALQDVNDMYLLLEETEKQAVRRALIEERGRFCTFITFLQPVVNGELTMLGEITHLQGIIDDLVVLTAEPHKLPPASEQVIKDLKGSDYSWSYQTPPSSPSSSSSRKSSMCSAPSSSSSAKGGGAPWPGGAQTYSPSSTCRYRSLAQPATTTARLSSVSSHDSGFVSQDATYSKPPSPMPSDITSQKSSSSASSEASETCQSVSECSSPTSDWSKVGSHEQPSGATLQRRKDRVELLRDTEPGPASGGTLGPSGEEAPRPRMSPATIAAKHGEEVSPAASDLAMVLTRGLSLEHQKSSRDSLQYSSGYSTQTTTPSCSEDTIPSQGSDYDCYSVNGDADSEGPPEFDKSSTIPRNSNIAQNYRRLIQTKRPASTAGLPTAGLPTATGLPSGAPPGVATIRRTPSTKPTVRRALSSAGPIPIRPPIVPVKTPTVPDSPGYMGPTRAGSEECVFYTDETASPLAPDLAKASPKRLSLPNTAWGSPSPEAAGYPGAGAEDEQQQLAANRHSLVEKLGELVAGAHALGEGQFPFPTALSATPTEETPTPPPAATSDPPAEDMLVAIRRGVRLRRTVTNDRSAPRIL

[2] = biological target: Phenol-sulfating phenol sulfotransferase 1 (human) (UniProt P50225)
[3] = biological target: Nuclear receptor co-repressor 2 (NCOR2) (human) (UniProt Q9Y618)
[4] = biological target: protein tyrosine phosphatase, receptor type, f polypeptide (PTPRF), interacting protein (liprin), alpha 1 (PPFIA1) (human) (UniProt Q13136)
[5] = biological target: T2, tumor necrosis factor, alpha-induced protein 2 (TNFAIP2) (human) (UniProt Q03169)
T2 sequence: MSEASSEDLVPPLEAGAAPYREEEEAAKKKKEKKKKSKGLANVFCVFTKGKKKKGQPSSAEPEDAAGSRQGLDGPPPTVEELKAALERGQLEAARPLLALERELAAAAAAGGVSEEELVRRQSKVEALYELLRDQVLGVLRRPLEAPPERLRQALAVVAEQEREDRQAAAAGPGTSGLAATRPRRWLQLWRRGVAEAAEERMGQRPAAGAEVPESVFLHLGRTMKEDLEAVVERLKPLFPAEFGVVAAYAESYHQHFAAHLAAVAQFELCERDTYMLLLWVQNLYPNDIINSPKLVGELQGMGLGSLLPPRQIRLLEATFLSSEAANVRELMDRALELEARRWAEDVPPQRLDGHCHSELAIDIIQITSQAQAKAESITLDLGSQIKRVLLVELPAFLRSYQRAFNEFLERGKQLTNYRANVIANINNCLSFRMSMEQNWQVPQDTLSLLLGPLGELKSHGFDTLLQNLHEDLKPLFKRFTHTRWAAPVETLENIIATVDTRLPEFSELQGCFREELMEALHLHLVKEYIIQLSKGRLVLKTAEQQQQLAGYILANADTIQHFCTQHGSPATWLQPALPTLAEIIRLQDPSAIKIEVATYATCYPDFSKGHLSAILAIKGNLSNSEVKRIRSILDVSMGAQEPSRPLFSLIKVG

[6] = biological target: ZXD family zinc finger C (ZXDC) (human) (UniProt Q2QGD7)
[7] = biological target: RNA binding motif protein 10 (RBM10) (human) (UniProt P98175)
[8] = biological target: Adenomatosis polyposis coli (APC) (human) (UniProt P25054)
[9] = biological target: T3, peroxisomal biogenesis factor 19 (PEX19) (human) (UniProt P40855)
T3 sequence: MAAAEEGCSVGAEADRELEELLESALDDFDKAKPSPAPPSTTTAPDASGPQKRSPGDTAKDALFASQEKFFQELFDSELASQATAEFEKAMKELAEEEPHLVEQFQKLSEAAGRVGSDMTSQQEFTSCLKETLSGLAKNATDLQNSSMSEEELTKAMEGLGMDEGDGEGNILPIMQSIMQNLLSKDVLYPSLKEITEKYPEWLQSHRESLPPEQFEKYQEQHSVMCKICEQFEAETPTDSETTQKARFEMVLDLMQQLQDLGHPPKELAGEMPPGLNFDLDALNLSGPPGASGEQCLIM

Measured: binding

Human cytomegalovirus immediate-early protein 1 (from UniProt P13202 1-491)
binds: all assays above
